{"sequences": {"note": "By UniProt entry, the sequences of proteins in these tests, tags left out. Where a name states a change or a piece, a line headed by the entry shows the natural chain unless it says otherwise. Chains listed by the source or under a name are the forms on record and can include a tag or linker.", "UniProt P13569, with tags, fused parts or gaps DEL508-508": "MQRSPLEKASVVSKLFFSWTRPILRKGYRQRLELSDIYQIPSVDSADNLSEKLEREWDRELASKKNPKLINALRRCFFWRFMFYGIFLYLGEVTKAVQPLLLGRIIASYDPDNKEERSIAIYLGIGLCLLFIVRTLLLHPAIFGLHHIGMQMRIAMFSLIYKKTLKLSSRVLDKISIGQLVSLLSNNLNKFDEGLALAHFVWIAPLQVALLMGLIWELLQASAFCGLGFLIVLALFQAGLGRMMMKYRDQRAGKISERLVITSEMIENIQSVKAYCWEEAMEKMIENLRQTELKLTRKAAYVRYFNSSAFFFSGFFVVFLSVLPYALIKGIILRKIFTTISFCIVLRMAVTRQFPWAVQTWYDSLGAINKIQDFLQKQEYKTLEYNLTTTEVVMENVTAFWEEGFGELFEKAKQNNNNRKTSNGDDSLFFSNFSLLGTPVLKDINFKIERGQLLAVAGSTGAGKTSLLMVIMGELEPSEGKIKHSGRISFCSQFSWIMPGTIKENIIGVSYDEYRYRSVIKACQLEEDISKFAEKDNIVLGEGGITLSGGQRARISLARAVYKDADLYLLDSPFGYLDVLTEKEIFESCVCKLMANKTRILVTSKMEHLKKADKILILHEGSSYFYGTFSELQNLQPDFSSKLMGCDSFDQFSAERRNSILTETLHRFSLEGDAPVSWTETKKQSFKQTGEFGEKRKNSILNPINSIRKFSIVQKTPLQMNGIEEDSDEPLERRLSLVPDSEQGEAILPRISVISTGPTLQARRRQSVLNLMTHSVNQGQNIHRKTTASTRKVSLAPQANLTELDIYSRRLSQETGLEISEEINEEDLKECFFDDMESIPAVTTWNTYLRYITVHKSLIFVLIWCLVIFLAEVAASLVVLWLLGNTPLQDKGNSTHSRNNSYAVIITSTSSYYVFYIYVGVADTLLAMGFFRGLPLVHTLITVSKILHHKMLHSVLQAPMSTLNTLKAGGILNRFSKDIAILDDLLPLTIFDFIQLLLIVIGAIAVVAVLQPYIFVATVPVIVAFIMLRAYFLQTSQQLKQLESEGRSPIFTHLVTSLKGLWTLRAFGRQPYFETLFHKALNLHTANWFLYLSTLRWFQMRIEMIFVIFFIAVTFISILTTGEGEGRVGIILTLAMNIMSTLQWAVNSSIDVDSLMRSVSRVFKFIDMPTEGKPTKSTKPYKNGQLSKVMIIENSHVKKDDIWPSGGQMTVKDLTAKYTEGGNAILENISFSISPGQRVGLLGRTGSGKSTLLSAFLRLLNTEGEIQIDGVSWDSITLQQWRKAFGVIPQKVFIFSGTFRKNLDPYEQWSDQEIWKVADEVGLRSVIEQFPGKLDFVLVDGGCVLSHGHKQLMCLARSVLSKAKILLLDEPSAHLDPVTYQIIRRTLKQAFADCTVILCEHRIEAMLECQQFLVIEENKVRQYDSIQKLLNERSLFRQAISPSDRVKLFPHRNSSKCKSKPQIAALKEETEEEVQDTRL"}, "source": "patent US20020115619A1", "about": "“Compositions and methods for treatment of cystic fibrosis” (priority 2000, published 2002)", "origin": "cited, not measured here", "biological_target": "ΔF508-CFTR (Homo sapiens, UniProt P13569, DEL508-508)", "parameters": "host or cells: nasal epithelium of ΔF508-homozygous CF subjects (endogenous protein)", "details": "19 grams per day divided t.i.d., one week; ΔF508-homozygous CF subjects; cited from earlier work", "note": "For at least one compound, name, drawing or mass did not settle the structure."}
{"smiles": "O=C(O)CCCc1ccccc1", "note": "[4PBA, 4-phenylbutyrate]", "values": [{"measurement": "change in Nasal Potential Difference measurements (NPD)", "value": "small but statistically significant improvement"}]}
